Experimental data: paper PMC12802937
These are yes or no findings as the source states them, for the method shown. Binding calls can cover weak binding; strength is not graded here.

Biological target: T1, intein-WAC S4 (R630E) (human) (UniProt Q9BTA9)
T1 sequence: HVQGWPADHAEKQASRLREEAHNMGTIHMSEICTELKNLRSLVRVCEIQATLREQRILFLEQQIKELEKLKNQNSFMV
Assay: pull-down; 15 μg intein-WAC incubated with 10 μg RNF-MD, then chitin-agarose resin; 20 mM TRIS (pH 7.5), 300 mM sodium chloride; SDS–PAGE; both purified

binding: binds
Substance: RNF-MD S4i (D780K in RNF20) (human) (complex)
